PubChem BioAssay AID686943 | Drosophila RNAi Screening Center – 2013
Screen: 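Knockdowns that increase or decrease active ERK after insulin receptor stimulation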 (primary screen). Cell system: Drosophila S2R+ haemocyte-like cells expressing YFP-tagged ERK (Rolled). Knock-down reagent: long dsRNA against Drosophila genes. Conditions: insulin stimulation versus unstimulated cells; dose and duration not given. Measurement: 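Per-plate z-scores of phospho-ERK immunostaining normalised to YFP-tagged ERK, measured with and without insulin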. Direction: replicate 1, z-score of dpERK with insulin: higher = more active ERK per ERK-YFP after insulin.
The deposit covers about 23,000 reagents; shown is an unselected part of those with a known target gene and a result. 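Extra replicates exist only for a retested subset of genes; insulin dose and duration not given; both raised and lowered dpERK matter.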 A plus sign joins genes that one reagent is predicted to hit. Further read-outs or replicates are left out here. Not stated in the record: the amount of reagent, the time to read-out.

CG32192 [DRSC21760]
- replicate 1, z-score of dpERK with insulin: 0.15

CG42715 (retired record) [DRSC05499]
- replicate 1, z-score of dpERK with insulin: 0.44

CG14151 [DRSC10153]
- replicate 1, z-score of dpERK with insulin: -2.15

CG10560 [DRSC14256]
- replicate 1, z-score of dpERK with insulin: -0.13

CG15822 [DRSC08482]
- replicate 1, z-score of dpERK with insulin: -1.23

CG15822 [DRSC08483]
- replicate 1, z-score of dpERK with insulin: -0.65

PIG-H + Kmn2 [DRSC12653]
- replicate 1, z-score of dpERK with insulin: -0.29

CG15395 [DRSC00409]
- replicate 1, z-score of dpERK with insulin: 0.03

Ythdf [DRSC16036]
- replicate 1, z-score of dpERK with insulin: 0.5

Ythdf [DRSC16037]
- replicate 1, z-score of dpERK with insulin: 0.02

Sos [DRSC03439]
- replicate 1, z-score of dpERK with insulin: -6.28

mag [DRSC11787]
- replicate 1, z-score of dpERK with insulin: 0.2

CG9970 [DRSC08644]
- replicate 1, z-score of dpERK with insulin: -0.8

CG12935 [DRSC06248]
- replicate 1, z-score of dpERK with insulin: -0.13

rha [DRSC17044]
- replicate 1, z-score of dpERK with insulin: -0.36

Pex23 [DRSC10323]
- replicate 1, z-score of dpERK with insulin: 0.3

Pex23 [DRSC10645]
- replicate 1, z-score of dpERK with insulin: -0.14

CG31664 [DRSC22084]
- replicate 1, z-score of dpERK with insulin: -2.52

CG34005 [DRSC05700]
- replicate 1, z-score of dpERK with insulin: 1.17

CG13053 [DRSC09934]
- replicate 1, z-score of dpERK with insulin: 0.76

Ugt36D1 [DRSC02600]
- replicate 1, z-score of dpERK with insulin: -1.2

CG8611 [DRSC19340]
- replicate 1, z-score of dpERK with insulin: -0.3

CG5913 [DRSC15916]
- replicate 1, z-score of dpERK with insulin: 0.73

Cont [DRSC12149]
- replicate 1, z-score of dpERK with insulin: 0.03

Spt20 [DRSC10280]
- replicate 1, z-score of dpERK with insulin: -0.62

Polr3B [DRSC07536]
- replicate 1, z-score of dpERK with insulin: 1.16

SP [DRSC09664]
- replicate 1, z-score of dpERK with insulin: 0.24

CG5225 [DRSC15742]
- replicate 1, z-score of dpERK with insulin: 0.25

CG17732 [DRSC10283]
- replicate 1, z-score of dpERK with insulin: 0.53

nrm [DRSC11597]
- replicate 1, z-score of dpERK with insulin: -0.18

nrm [DRSC11599]
- replicate 1, z-score of dpERK with insulin: -0.5

nrm [DRSC11897]
- replicate 1, z-score of dpERK with insulin: 0.11

CR33283 [DRSC22918]
- replicate 1, z-score of dpERK with insulin: -0.09

TTLL4B [DRSC00636]
- replicate 1, z-score of dpERK with insulin: -0.63

ncd [DRSC17012]
- replicate 1, z-score of dpERK with insulin: -0.88

CG9312 [DRSC16471]
- replicate 1, z-score of dpERK with insulin: -0.58

CG15422 [DRSC00436]
- replicate 1, z-score of dpERK with insulin: 1.62

Vha36-1 [DRSC07098]
- replicate 1, z-score of dpERK with insulin: -0.16

nxf4 [DRSC12548]
- replicate 1, z-score of dpERK with insulin: 0.34

CG8950 [DRSC07300]
- replicate 1, z-score of dpERK with insulin: 0.19

Reformatted: 6 of the entries above.
predicted target,dsRNA,"replicate 1, z-score of dpERK with insulin"
CG9970,DRSC08644,-0.8
CG12935,DRSC06248,-0.13
rha,DRSC17044,-0.36
Pex23,DRSC10323,0.3
Pex23,DRSC10645,-0.14
CG31664,DRSC22084,-2.52
